Laboratory results published in paper PMC3572101.
These are yes or no findings as the source states them, for the method shown. Binding seen in cells or lysates may run through a third protein. Some entries that bind do so weakly or less than the wild type.

Sequences of proteins named here, by UniProt entry; tags and fusion partners are left off.
UniProt Q07812: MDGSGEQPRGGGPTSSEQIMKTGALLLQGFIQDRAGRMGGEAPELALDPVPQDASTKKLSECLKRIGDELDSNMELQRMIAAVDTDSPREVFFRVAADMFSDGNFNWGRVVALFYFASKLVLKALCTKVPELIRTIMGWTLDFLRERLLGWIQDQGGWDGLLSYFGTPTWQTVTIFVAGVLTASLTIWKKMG
UniProt P12956: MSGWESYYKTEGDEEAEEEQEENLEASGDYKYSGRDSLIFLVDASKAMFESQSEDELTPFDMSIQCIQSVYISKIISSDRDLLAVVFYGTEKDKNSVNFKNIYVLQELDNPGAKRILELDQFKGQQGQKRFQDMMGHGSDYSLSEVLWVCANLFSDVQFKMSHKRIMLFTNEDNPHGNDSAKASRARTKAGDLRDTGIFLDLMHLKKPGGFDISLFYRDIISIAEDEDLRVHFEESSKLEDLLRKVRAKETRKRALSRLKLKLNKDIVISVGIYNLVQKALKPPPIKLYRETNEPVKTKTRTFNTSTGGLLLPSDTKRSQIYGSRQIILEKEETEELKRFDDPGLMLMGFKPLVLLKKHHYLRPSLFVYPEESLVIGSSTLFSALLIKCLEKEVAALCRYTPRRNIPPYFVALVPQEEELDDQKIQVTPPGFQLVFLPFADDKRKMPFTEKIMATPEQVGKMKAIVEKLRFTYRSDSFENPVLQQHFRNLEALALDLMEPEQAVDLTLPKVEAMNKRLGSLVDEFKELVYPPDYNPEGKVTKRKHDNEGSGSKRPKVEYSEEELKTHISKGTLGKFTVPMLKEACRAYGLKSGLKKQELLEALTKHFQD

Legend:
[1] = target: Bax (human (endogenous in LNCaP)) (UniProt Q07812); assay: co-IP; unirradiated U7-control LNCaP cells; 100 ug total extract, 4 ug anti-Bax (clone 2D2) in PBS + 0.05% NP-40, overnight at 4°C, Protein G-Agarose; blot for Ku70
[2] = target: Bax (human (endogenous in LNCaP)) (UniProt Q07812); assay: co-IP; U7-control LNCaP cells 24 hrs after irradiation; 100 ug total extract, anti-Bax (clone 2D2) in PBS + 0.05% NP-40, overnight at 4°C, Protein G-Agarose; blot for Ku70

For Ku70 (from UniProt P12956 1-609), the binding [1] was “binds” and the binding [2] was “binds weakly”.
